From PMC3390413
Results are given in words; binding and its absence hold for the method and conditions named. In cells and extracts the contact can be indirect. Here binding means that the protein was enriched with, or labelled near, the bait; the list need not be complete. For some assays here: Where a sequence is shown, tags or fusion partners need not be part of it.

T1: FLAG-p115 (human) (UniProt O60763)
T1 sequence: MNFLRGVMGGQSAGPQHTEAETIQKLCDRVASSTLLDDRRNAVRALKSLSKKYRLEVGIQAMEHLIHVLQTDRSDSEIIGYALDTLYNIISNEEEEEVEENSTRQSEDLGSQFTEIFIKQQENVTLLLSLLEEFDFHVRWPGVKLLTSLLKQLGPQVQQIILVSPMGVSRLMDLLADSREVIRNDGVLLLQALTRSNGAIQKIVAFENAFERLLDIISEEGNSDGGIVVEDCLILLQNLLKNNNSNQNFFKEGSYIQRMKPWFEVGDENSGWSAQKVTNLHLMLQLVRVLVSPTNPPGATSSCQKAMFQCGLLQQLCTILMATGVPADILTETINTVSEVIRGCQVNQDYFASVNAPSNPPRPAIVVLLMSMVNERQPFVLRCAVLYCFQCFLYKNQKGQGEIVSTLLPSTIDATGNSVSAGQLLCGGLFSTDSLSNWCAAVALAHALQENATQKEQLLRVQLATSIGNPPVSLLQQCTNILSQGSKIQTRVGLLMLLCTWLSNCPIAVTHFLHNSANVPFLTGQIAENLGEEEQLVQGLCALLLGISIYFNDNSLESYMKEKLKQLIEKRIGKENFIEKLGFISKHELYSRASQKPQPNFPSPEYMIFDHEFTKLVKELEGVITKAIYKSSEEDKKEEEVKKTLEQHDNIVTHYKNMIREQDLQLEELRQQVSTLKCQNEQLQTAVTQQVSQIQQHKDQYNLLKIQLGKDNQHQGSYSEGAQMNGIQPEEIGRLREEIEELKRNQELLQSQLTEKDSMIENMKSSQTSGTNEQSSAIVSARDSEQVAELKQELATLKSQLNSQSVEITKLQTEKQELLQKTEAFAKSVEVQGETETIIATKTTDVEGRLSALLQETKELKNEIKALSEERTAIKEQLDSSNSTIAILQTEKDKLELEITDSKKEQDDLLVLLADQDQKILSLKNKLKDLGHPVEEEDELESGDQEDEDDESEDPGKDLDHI


Columns and labels:
FLAG-TRAF3 (human) = assay: affinity purification with mass spectrometry; HEK293 cells stably expressing the FLAG-tagged bait; lysis in 0.5% NP-40; FLAG M2 beads, 2 h; LC-MS/MS; SAINT scoring against cells expressing FLAG alone; two biological replicates
FLAG-p115 (human) = biological target: T1, FLAG-p115 (human); assay: as above

Row | binding (FLAG-TRAF3 (human)) | binding (FLAG-p115 (human)) | Binder
1 | binds |  | endogenous p115 (protein, UniProt O60763 1-962) MNFLRGVMGGQSAGPQHTEAETIQKLCDRVASSTLLDDRRNAVRALKSLSKKYRLEVGIQAMEHLIHVLQTDRSDSEIIGYALDTLYNIISNEEEEEVEENSTRQSEDLGSQFTEIFIKQQENVTLLLSLLEEFDFHVRWPGVKLLTSLLKQLGPQVQQIILVSPMGVSRLMDLLADSREVIRNDGVLLLQALTRSNGAIQKIVAFENAFERLLDIISEEGNSDGGIVVEDCLILLQNLLKNNNSNQNFFKEGSYIQRMKPWFEVGDENSGWSAQKVTNLHLMLQLVRVLVSPTNPPGATSSCQKAMFQCGLLQQLCTILMATGVPADILTETINTVSEVIRGCQVNQDYFASVNAPSNPPRPAIVVLLMSMVNERQPFVLRCAVLYCFQCFLYKNQKGQGEIVSTLLPSTIDATGNSVSAGQLLCGGLFSTDSLSNWCAAVALAHALQENATQKEQLLRVQLATSIGNPPVSLLQQCTNILSQGSKIQTRVGLLMLLCTWLSNCPIAVTHFLHNSANVPFLTGQIAENLGEEEQLVQGLCALLLGISIYFNDNSLESYMKEKLKQLIEKRIGKENFIEKLGFISKHELYSRASQKPQPNFPSPEYMIFDHEFTKLVKELEGVITKAIYKSSEEDKKEEEVKKTLEQHDNIVTHYKNMIREQDLQLEELRQQVSTLKCQNEQLQTAVTQQVSQIQQHKDQYNLLKIQLGKDNQHQGSYSEGAQMNGIQPEEIGRLREEIEELKRNQELLQSQLTEKDSMIENMKSSQTSGTNEQSSAIVSARDSEQVAELKQELATLKSQLNSQSVEITKLQTEKQELLQKTEAFAKSVEVQGETETIIATKTTDVEGRLSALLQETKELKNEIKALSEERTAIKEQLDSSNSTIAILQTEKDKLELEITDSKKEQDDLLVLLADQDQKILSLKNKLKDLGHPVEEEDELESGDQEDEDDESEDPGKDLDHI
2 |  | binds | GM130 (protein, UniProt Q08379 1-1002) MWPQPRLPPRPAMSEETRQSKLAAAKKKLREYQQRNSPGVPTGAKKKKKIKNGSNPETTTSGGCHSPEDTPKDNAATLQPSDDTVLPGGVPSPGASLTSMAASQNHDADNVPNLMDETKTFSSTESLRQLSQQLNGLVCESATCVNGEGPASSANLKDLESRYQQLAVALDSSYVTNKQLNITIEKLKQQNQEITDQLEEEKKECHQKQGALREQLQVHIQTIGILVSEKAELQTALAHTQHAARQKEGESEDLASRLQYSRRRVGELERALSAVSTQQKKADRYNKELTKERDALRLELYKNTQSNEDLKQEKSELEEKLRVLVTEKAGMQLNLEELQKKLEMTELLLQQFSSRCEAPDANQQLQQAMEERAQLEAHLGQVMESVRQLQMERDKYAENLKGESAMWRQRMQQMSEQVHTLREEKECSMSRVQELETSLAELRNQMAEPPPPEPPAGPSEVEQQLQAEAEHLRKELEGLAGQLQAQVQDNEGLSRLNREQEERLLELERAAELWGEQAEARRQILETMQNDRTTISRALSQNRELKEQLAELQSGFVKLTNENMEITSALQSEQHVKRELGKKLGELQEKLSELKETVELKSQEAQSLQQQRDQYLGHLQQYVAAYQQLTSEKEVLHNQLLLQTQLVDQLQQQEAQGKAVAEMARQELQETQERLEAATQQNQQLRAQLSLMAHPGEGDGLDREEEEDEEEEEEEAVAVPQPMPSIPEDLESREAMVAFFNSAVASAEEEQARLRGQLKEQRVRCRRLAHLLASAQKEPEAAAPAPGTGGDSVCGETHRALQGAMEKLQSRFMELMQEKADLKERVEELEHRCIQLSGETDTIGEYIALYQSQRAVLKERHREKEEYISRLAQDKEEMKVKLLELQELVLRLVGDRNEWHGRFLAAAQNPADEPTSGAPAPQELGAANQQGDLCEVSLAGSVEPAQGEAREGSPRDNPTAQQIMQLLREMQNPRERPGLGSNPCIPFFYRADENDEVKITVI
